Experiment [1] has as its target T1, gp91phox (catalytic membrane subunit of NADPH oxidase, NOX2) (Mus musculus, UniProt Q61093).
T1 construct: gene Cybb
In words: cell-based.

By UniProt entry, the sequences of proteins in these tests, tags left out. Residues count along the entry.
UniProt Q61093, 2-570: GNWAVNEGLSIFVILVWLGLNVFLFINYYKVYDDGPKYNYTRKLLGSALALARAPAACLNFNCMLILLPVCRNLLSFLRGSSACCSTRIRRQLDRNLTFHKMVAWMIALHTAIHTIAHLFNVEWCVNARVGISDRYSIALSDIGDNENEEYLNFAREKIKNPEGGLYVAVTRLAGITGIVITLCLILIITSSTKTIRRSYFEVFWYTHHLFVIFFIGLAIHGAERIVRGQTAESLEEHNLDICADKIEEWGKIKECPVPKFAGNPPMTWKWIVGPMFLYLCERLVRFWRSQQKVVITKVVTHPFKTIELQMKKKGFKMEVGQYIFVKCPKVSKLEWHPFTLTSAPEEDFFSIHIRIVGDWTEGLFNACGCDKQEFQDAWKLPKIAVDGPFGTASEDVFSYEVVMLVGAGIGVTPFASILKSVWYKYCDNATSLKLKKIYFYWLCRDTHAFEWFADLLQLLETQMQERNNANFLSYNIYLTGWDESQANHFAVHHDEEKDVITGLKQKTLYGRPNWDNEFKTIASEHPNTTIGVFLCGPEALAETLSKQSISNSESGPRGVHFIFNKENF

In experiment [2] the target is T1, gp91phox (catalytic membrane subunit of NADPH oxidase, NOX2). In words: cell-based. The source holds these as a separate data set.

This passage reports IC50 results from paper PMC3305409, “Naloxone inhibits immune cell function by suppressing superoxide production through a direct interaction with gp91^phox subunit of NADPH oxidase” (2012).

Like-named read-outs stand apart in the source and are kept apart here.

Turning to `C=CCN1CC[C@]23c4c5ccc(O)c4O[C@H]2C(=O)CC[C@@]3(O)[C@H]1C5` [(-)-naloxone], the IC50 (in general, the midpoint of a concentration-inhibition curve) in experiment [1] was determined as 2730 nM.

`C=CCN1CC[C@]23c4c5ccc(O)c4O[C@H]2C(=O)CC[C@@]3(O)[C@H]1C5` [(+)-naloxone]: in experiment [2], the IC50 amounted to 1570 nM.
